According to patent US20010029030A1:
No constants are given. Whether binding was seen depends on the method and setting. In cells and extracts the contact can be indirect. Some binding calls cover weakened binding; strength is not graded here. Where a sequence is shown, tags or fusion partners need not be part of it.

Target: T1, T7-epitope tagged FADD, Q13158
T1 chain: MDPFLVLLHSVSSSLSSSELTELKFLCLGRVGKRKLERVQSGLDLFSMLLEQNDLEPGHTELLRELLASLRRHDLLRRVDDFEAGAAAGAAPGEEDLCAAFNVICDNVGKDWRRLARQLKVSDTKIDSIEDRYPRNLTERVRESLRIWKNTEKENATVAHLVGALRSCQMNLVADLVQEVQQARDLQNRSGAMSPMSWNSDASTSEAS
Assay: co-immunoprecipitation from transfected 293 cells (anti-Flag IP, T7 immunoblot)
Conditions: remark: other sources report otherwise

- binding: binds
B1: Flag-epitope tagged Fas (full length), P25445 26-335 (receptor, UniProt P25445 26-335, looked up, not shown: small tags and cut ends)
chain: QVTDINSKGLELRKTVTTVETQNLEGLHHDGQFCHKPCPPGERKARDCTVNGDEPDCVPCQEGKEYTDKAHFSSKCRRCRLCDEGHGLEVEINCTRTQNTKCRCKPNFFCNSTVCEHCDPCTKCEHGIIKECTLTSNTKCKEEGSRSNLGWLCLLLLPIPLIVWVKRKEVQKTCRKHRKENQGSHESPTLNPETVAINLSDVDLSKYITTIAGVMTLSQVKGFVRKNGVNEAKIDEIKNDNVQDTAEQKVQLLRNWHQLHGKKEAYDTLIKDLKKANLCTLAEKIQTIILKDITSDSENSNFRNEIQSLV
